Experimental data taken from patent US20100298285A1, “Biclycloheteroaryl Compounds as P2x7 Modulators and Uses Thereof” (priority 2006, published 2010).
At least one read-out could not be matched to a standard name with certainty.

System: IL-1β release, THP-1 cells
Assay: IL-1β release assay in differentiated THP-1 cells stimulated with BzATP (Example 9)
Type: cell-based, human
Conditions: BzATP 250 uM, "+" symbols = inhibition at 0.3 μM, "*" symbols = inhibition at 0.1 μM
Procedure: THP-1 cells (ATCC Cat # 285-IF-100) are plated in 96 well plates at a concentration of 200,000 cells per well and allowed to differentiate in RPMI-1640 media (ATCC Cat # 30-2001) containing 10% FBS, 100 IU/mL penicillin, 100 ug/mL streptomycin, 100 ng/mL LPS and 100 ng/mL IFN-γ for 16 hours. Following differentiation, the cells are treated for an additional 2 hours in RPMI-1640 media containing 100 IU/mL penicillin, 100 ug/mL streptomycin and fresh LPS at 100 ng/mL. The cells are then pretreated for 30 minutes with the compound of interest at the appropriate concentration in RPMI media containing 100 IU/mL penicillin, 100 ug/mL streptomycin. Following the pretreatment 2′,3′-O-(4-benzoylbenzoyl)-adenosine 5′-triphosphate (Sigma Aldrich Cat # B6396) is added to a final concentration of 250 uM and the cells are incubated for an additional 45 minutes. 30 uL of cell supernatant is then collected and IL-1β levels determined via ELISA (R&D systems Cat. # HSLB50) according to manufacturer's recommendations using the Tecan Safire plate reader. Background adjusted IL-1β levels of drug treated and non-treated cells are used to calculate the percent inhibition.
The following compounds have been or can be prepared according to the synthetic methods described above. For the purpose of Table 1 below, activity of each compound, which can be determined using the IL-1β assay method described in Example 9, is expressed as follows: […]
The compounds set forth in Table 1 were tested for activity in a cellular model as described herein. Specifically, cells were pretreated with differing amounts of the compound under test and released IL-1β determined as in Example 9, above. Measurements were made and IC50 values, presented in Table 2, below, were determined by fitting the data to a four parameter logistic equation using GraphPad Prism software (GraphPad Software, Inc). The equation may be expressed by the following formula:
Y=Bottom+(Top−Bottom)/(1+10̂((Log EC50−X)*HillSlope))
Where X is the logarithm of concentration, Y is the response and Y starts at Bottom and goes to Top with a sigmoid shape.

Row | Structure (SMILES) | IL-1β% Inhib. @ 0.3 or 0.1 μM
1 | CCCS(=O)(=O)N1CCc2c(ccc(Cl)c2NC(=O)Cc2ccc(C(F)(F)F)c(F)c2)C1 [Compound 3266] | + (compound exhibited 0-25% inhibition at 0.3 μM concentration)
2 | O=C(Cc1ccc(C(F)(F)F)c(F)c1)Nc1c(Cl)ccc2c1CCN(S(=O)(=O)CC(F)(F)F)C2 [Compound 3267] | + (compound exhibited 0-25% inhibition at 0.3 μM concentration)
3 | COc1ccc(S(=O)(=O)N2CCc3c(ccc(Cl)c3NC(=O)Cc3cccc(C(F)(F)F)c3F)C2)cc1OC [Compound 3268] | + (compound exhibited 0-25% inhibition at 0.3 μM concentration)
4 | Cc1cccc(S(=O)(=O)N2CCc3c(ccc(Cl)c3NC(=O)Cc3ccc(C(F)(F)F)c(F)c3)C2)c1 [Compound 3269] | + (compound exhibited 0-25% inhibition at 0.3 μM concentration)
5 | O=C(Cc1ccc(C(F)(F)F)c(F)c1)Nc1c(Cl)ccc2c1CCN(S(=O)(=O)c1ccc(Oc3ccc(Cl)c(Cl)c3)cc1)C2 [Compound 3270] | + (compound exhibited 0-25% inhibition at 0.3 μM concentration)
6 | O=C(Cc1ccc(C(F)(F)F)c(F)c1)Nc1c(Cl)ccc2c1CCN(S(=O)(=O)c1csc3ccccc13)C2 [Compound 3271] | + (compound exhibited 0-25% inhibition at 0.3 μM concentration)
7 | CCS(=O)(=O)N1CCc2c(ccc(Cl)c2NC(=O)Cc2ccc(C(F)(F)F)c(F)c2)C1 [Compound 3272] | ++++ (compound exhibited 76% or greater inhibition at 0.3 μM concentration)
8 | O=C(Cc1ccc(C(F)(F)F)c(F)c1)Nc1c(Cl)ccc2c1CCN(S(=O)(=O)c1c(F)cccc1F)C2 [Compound 3273] | ++++ (compound exhibited 76% or greater inhibition at 0.3 μM concentration)
9 | O=C(Cc1ccc(C(F)(F)F)c(F)c1)Nc1c(Cl)ccc2c1CCN(S(=O)(=O)c1ccc(Oc3ccccc3)cc1)C2 [Compound 3274] | ++ (compound exhibited 26-50% inhibition at 0.3 μM concentration)
10 | COc1cccc(S(=O)(=O)N2CCc3c(ccc(Cl)c3NC(=O)Cc3ccc(C(F)(F)F)c(F)c3)C2)c1 [Compound 3275] | ++ (compound exhibited 26-50% inhibition at 0.3 μM concentration)
11 | COc1ccc(OC)c(S(=O)(=O)N2CCc3c(ccc(Cl)c3NC(=O)Cc3ccc(C(F)(F)F)c(F)c3)C2)c1 [Compound 3276] | + (compound exhibited 0-25% inhibition at 0.3 μM concentration)
12 | O=C(Cc1cccc(C(F)(F)F)c1F)Nc1c(Cl)ccc2c1CCN(S(=O)(=O)c1ccc(Oc3ccccc3)cc1)C2 [Compound 3277] | + (compound exhibited 0-25% inhibition at 0.3 μM concentration)
13 | Cc1ccccc1S(=O)(=O)N1CCc2c(ccc(Cl)c2NC(=O)Cc2cccc(C(F)(F)F)c2F)C1 [Compound 3278] | ++ (compound exhibited 26-50% inhibition at 0.3 μM concentration)
14 | COc1ccc(S(=O)(=O)N2CCc3c(ccc(Cl)c3NC(=O)Cc3ccc(C(F)(F)F)c(F)c3)C2)cc1OC [Compound 3279] | ++ (compound exhibited 26-50% inhibition at 0.3 μM concentration)
15 | O=C(Cc1ccc(C(F)(F)F)c(F)c1)Nc1c(Cl)ccc2c1CCN(S(=O)(=O)C1CC1)C2 [Compound 3280] | ++++ (compound exhibited 76% or greater inhibition at 0.3 μM concentration)
16 | O=C(Cc1ccc(C(F)(F)F)c(F)c1)Nc1c(Cl)ccc2c1CCN(S(=O)(=O)c1cccc(C(F)(F)F)c1)C2 [Compound 3281] | + (compound exhibited 0-25% inhibition at 0.3 μM concentration)
17 | O=C(Cc1ccc(C(F)(F)F)c(F)c1)Nc1c(Cl)ccc2c1CCN(S(=O)(=O)c1ccccc1OC(F)(F)F)C2 [Compound 3282] | + (compound exhibited 0-25% inhibition at 0.3 μM concentration)
18 | Cc1cccc(S(=O)(=O)N2CCc3c(ccc(Cl)c3NC(=O)Cc3cccc(C(F)(F)F)c3F)C2)c1 [Compound 3283] | +++ (compound exhibited 51-75% inhibition at 0.3 μM concentration)
